From paper PMC8931250, “A SURF4-to-proteoglycan relay mechanism that mediates the sorting and secretion of a tagged variant of sonic hedgehog” (Proceedings of the National Academy of Sciences of the …, 2022) come the findings set out here.

The chains behind the UniProt entries cited, without tags or fusion partners. Residues count along the entry.
UniProt Q62226, residues 25-198: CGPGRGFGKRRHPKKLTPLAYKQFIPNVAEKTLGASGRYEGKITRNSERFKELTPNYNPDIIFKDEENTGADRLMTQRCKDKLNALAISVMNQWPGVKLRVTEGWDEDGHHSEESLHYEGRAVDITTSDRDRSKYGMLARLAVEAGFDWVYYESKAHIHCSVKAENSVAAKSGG
UniProt O15260: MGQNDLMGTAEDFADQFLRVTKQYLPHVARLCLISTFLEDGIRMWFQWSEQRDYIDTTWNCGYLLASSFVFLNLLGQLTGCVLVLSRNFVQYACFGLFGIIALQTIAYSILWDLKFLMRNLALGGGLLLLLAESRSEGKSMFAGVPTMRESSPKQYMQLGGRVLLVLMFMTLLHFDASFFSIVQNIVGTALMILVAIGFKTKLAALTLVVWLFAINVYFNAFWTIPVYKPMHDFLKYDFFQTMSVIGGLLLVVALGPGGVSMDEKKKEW
UniProt P23284, residues 34-216: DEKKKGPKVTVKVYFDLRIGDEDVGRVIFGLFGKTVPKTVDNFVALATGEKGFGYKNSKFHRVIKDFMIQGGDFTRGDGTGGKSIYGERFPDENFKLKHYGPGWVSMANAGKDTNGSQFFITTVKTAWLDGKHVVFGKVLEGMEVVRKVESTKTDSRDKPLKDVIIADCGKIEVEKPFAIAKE

To fix the notation:
B1: betaine-homocysteine S-methyltransferase (BHMT) (enzyme, UniProt Q93088 1-406)
chain: MPPVGGKKAKKGILERLNAGEIVIGDGGFVFALEKRGYVKAGPWTPEAAVEHPEAVRQLHREFLRAGSNVMQTFTFYASEDKLENRGNYVLEKISGQEVNEAACDIARQVADEGDALVAGGVSQTPSYLSCKSETEVKKVFLQQLEVFMKKNVDFLIAEYFEHVEEAVWAVETLIASGKPVAATMCIGPEGDLHGVPPGECAVRLVKAGASIIGVNCHFDPTISLKTVKLMKEGLEAARLKAHLMSQPLAYHTPDCNKQGFIDLPEFPFGLEPRVATRWDIQKYAREAYNLGVRYIGGCCGFEPYHIRAIAEELAPERGFLPPASEKHGSWGSGLDMHTKPWVRARARKEYWENLRIASGRPYNPSMSKPDGWGVTKGTAELMQQKEATTEQQLKELFEKQKFKSQ
B2: vacuolar protein sorting-associated protein 51 homolog (VPS51) (protein, UniProt Q9UID3 1-782)
chain: MAAAAAAGPSPGSGPGDSPEGPEGEAPERRRKAHGMLKLYYGLSEGEAAGRPAGPDPLDPTDLNGAHFDPEVYLDKLRRECPLAQLMDSETDMVRQIRALDSDMQTLVYENYNKFISATDTIRKMKNDFRKMEDEMDRLATNMAVITDFSARISATLQDRHERITKLAGVHALLRKLQFLFELPSRLTKCVELGAYGQAVRYQGRAQAVLQQYQHLPSFRAIQDDCQVITARLAQQLRQRFREGGSGAPEQAECVELLLALGEPAEELCEEFLAHARGRLEKELRNLEAELGPSPPAPDVLEFTDHGGSGFVGGLCQVAAAYQELFAAQGPAGAEKLAAFARQLGSRYFALVERRLAQEQGGGDNSLLVRALDRFHRRLRAPGALLAAAGLADAATEIVERVARERLGHHLQGLRAAFLGCLTDVRQALAAPRVAGKEGPGLAELLANVASSILSHIKASLAAVHLFTAKEVSFSNKPYFRGEFCSQGVREGLIVGFVHSMCQTAQSFCDSPGEKGGATPPALLLLLSRLCLDYETATISYILTLTDEQFLVQDQFPVTPVSTLCAEARETARRLLTHYVKVQGLVISQMLRKSVETRDWLSTLEPRNVRAVMKRVVEDTTAIDVQVGLLYEEGVRKAQSSDSSKRTFSVYSSSRQQGRYAPSYTPSAPMDTNLLSNIQKLFSERIDVFSPVEFNKVSVLTGIIKISLKTLLECVRLRTFGRFGLQQVQVDCHFLQLYLWRFVADEELVHLLLDEVVASAALRCPDPVPMEPSVVEVICERG

No constants are given. Whether binding was seen depends on the method and setting. In cells and extracts the contact can be indirect. A yes stands for co-enrichment or nearness to the bait. Other partners may have been found.

The target in this assay is 3xHA-tagged ShhN (ShhN^1-198-HA) (not stated (human or mouse cDNA cloned)) (UniProt Q62226). Put plainly: affinity purification with mass spectrometry; lysates of HEK293T cells transfected with ShhN-HA (controls: untransfected cells, IGF2-HA) incubated with beads conjugated with HA antibodies; eluted proteins trypsin digested and analysed by mass spectrometry.
For “Surfeit locus protein 4 (SURF4), endogenous (from UniProt O15260 1-269) (receptor)”, the binding result is reported as “binds”.

As to “peptidyl-prolyl cis-trans isomerase B (PPIB) (from UniProt P23284 34-216) (enzyme)”, the binding entry is given as “binds”.

In the case of B1, the binding result is “binds”.

For the molecule B2, the binding entry was “binds”.
